Experimental findings from PMC9250212 are described below.

The chains behind the UniProt entries cited, without tags or fusion partners.
UniProt Q14258: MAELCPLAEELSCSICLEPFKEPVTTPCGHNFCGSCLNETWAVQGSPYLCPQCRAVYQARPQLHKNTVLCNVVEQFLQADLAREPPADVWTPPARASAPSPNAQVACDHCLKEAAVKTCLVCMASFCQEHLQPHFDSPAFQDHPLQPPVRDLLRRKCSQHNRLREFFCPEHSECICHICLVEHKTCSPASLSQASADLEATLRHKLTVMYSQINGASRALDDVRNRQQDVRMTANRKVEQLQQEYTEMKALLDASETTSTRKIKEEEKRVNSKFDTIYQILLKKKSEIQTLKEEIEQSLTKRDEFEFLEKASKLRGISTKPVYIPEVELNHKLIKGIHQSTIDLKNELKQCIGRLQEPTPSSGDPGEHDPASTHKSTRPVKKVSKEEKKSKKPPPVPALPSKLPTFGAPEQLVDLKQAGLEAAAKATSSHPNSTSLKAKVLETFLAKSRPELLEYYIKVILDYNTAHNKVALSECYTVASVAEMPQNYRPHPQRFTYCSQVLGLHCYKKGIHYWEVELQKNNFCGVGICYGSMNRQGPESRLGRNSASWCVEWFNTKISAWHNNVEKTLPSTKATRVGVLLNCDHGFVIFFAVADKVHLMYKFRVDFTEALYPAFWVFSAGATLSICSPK

This assay addresses T1, δ-catenin (catenin delta 1) (human (endogenous in human gastric cancer cell lines)) (UniProt O60716).
T1 sequence: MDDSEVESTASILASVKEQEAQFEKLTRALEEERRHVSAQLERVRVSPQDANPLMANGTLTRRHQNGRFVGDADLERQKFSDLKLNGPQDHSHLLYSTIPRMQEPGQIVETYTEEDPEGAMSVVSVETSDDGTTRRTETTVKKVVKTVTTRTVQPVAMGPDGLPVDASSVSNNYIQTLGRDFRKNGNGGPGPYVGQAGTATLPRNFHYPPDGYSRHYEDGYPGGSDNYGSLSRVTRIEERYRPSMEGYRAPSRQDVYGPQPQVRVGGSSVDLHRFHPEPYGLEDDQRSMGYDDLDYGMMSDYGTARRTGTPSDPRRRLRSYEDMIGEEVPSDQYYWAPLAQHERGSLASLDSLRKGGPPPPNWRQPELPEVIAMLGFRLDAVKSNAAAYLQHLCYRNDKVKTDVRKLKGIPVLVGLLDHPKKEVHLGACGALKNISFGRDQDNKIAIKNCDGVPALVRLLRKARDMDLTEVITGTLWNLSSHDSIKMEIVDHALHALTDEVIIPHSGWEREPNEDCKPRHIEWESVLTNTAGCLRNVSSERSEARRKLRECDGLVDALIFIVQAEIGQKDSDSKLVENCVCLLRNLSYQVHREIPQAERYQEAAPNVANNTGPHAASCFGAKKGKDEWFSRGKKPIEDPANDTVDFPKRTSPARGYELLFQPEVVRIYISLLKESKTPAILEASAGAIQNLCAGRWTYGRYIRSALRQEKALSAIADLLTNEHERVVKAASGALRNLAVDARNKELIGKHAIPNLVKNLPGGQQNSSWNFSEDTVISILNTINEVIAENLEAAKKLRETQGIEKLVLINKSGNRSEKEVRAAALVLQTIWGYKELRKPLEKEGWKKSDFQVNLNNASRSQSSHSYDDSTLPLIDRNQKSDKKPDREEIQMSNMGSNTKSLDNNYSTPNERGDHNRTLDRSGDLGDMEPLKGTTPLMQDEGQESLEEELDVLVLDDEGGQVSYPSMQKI
Put plainly: co-IP; GC cells lysed in Pierce immunoprecipitation lysis buffer with proteinase, phosphatase and RNase inhibitors; beads at 4 °C overnight, washed three times, western blot; done in GC cells alone and in GC cells transfected with circEIF4G3 overexpressing plasmid (association enhanced).

These are yes or no findings as the source states them, for the method shown. Binding seen in cells or lysates may run through a third protein. Some results given as binding are weak or reduced against the parent protein; the word gives no strength.

Take “TRIM25 (Tripartite motif 25) (from UniProt Q14258 1-630)”: the binding result is given as “binds”.
